Results as given in publication PMC6723352, “Exploring Structure-Activity Relationship in Tacrine-Squaramide Derivatives as Potent Cholinesterase Inhibitors” (Biomolecules, 2019).

Conditions: PAMPA, PBS pH 7.4
Text: An important feature for drugs targeting the brain is their ability to cross the BBB. The parallel artificial membrane permeability assay (PAMPA) is a high-throughput screening tool applicable for prediction of passive transport across BBB [57]. […] These include mainly (i) the different composition of the human phospholipid bilayer may cause deviation in predicted permeability, (ii) omitting the absorption of compounds that are actively transported by influx transporters and pumped-out by various efflux mechanisms with the glycoprotein P at the forefront or (iii) transport through the paracellular route which is mostly exploited by small hydrophobic molecules. […]
PAMPA (the parallel artificial membrane permeability assay) is a high-throughput screening tool applicable for prediction of the passive transport of potential drugs across the blood-brain barrier (BBB). […] The concentration of the tested compound in both donor and the acceptor wells were assessed after 3, 4, 5 and 6 h of incubation in quadruplicate using the UV plate reader Synergy HT (Biotek, USA) at the maximum absorption wavelength of each compound (n = 3). Besides that, the solution of theoretical compound concentration, simulating the equilibrium state, established if the membrane was ideally permeable was prepared and assessed as well.

For `NS(=O)(=O)c1cc(C(=O)O)c(NCc2ccco2)cc1Cl` [furosemide, reference compound], the Pe was 0 cm/s.
